# Assay results reported in PMC7948455, “Novel drug discovery platform for spinocerebellar ataxia, using fluorescence technology targeting β-III-spectrin” (The Journal of Biological Chemistry, 2020).
# Assay: Fluorescence interference check (donor-only lifetime and fluorescence spectrum)
# Assay type: cell-based
# Details: 10 μM, Hit at 4SD threshold in at least 2 of the 4 screens, spectral readout
row,SMILES,Fluorescence interference of LOPAC Hit
1,"Nc1ccc2c3c(cccc13)C(=O)NC2=O [4-Amino-1,8-naphthalimide]",fluorescently interfering
2,CC[n+]1c(/C=C/C=C2/N(C)c3ccccc3C2(C)C)sc2ccccc21.[I-] [AC-93253 iodide],fluorescently interfering
3,O=C1NC(=O)/C(=C/c2ccc(-c3ccc(F)cc3O)o2)S1 [AS-252424],fluorescently interfering
4,O=C1Nc2ccc(I)cc2/C1=C/c1cc(Br)c(O)c(Br)c1 [GW5074],fluorescently interfering
5,O=C1C(SCCO)=C(SCCO)C(=O)c2ccccc21 [NSC 95397],fluorescently interfering
6,Oc1c2ccccc2c2c3c(cccc13)N=N2 [SP600125],fluorescently interfering
7,Cc1cc(C)c(/C=C2\C(=O)Nc3ccccc32)[nH]1 [SU 5416],fluorescently interfering
8,O=C(/C=C/c1ccc(O)cc1)CC(=O)/C=C/c1ccc(O)cc1 [bisdemethoxycurcumin],fluorescently interfering
9,OCCN(CCO)c1nc(N2CCCCC2)c2nc(N(CCO)CCO)nc(N3CCCCC3)c2n1 [dipyridamole],fluorescently interfering
10,Cc1c2ccncc2c(C)c2c1[nH]c1ccccc12 [ellipticine],fluorescently interfering
11,Cc1cc(O)c2c(c1)C(=O)c1cc(O)cc(O)c1C2=O [emodin],fluorescently interfering
12,CC(=O)[C@]1(O)Cc2c(O)c3c(c(O)c2[C@@H](O[C@H]2C[C@H](N)[C@H](O)[C@H](C)O2)C1)C(=O)c1ccccc1C3=O [idarubicin],fluorescently interfering
13,CCN(CC)CCCC(C)Nc1c2ccc(Cl)cc2nc2ccc(OC)cc12 (stereo not drawn) [quinacrine dihydrochloride],fluorescently interfering
14,C[n+]1cc2c3c(ccc2c2ccc4cc5c(cc4c21)OCO5)OCO3 [sanguinarine chloride],fluorescently interfering
15,C[C@H](O)C(=O)C1=Nc2c(nc(N)[nH]c2=O)NC1 [sepiapterin],fluorescently interfering
16,CCN(CC)CCNC(=O)c1c(C)[nH]c(/C=C2\C(=O)Nc3ccc(F)cc32)c1C [sunitinib malate],fluorescently interfering
17,Nc1n[n+]([O-])c2ccccc2[n+]1[O-] [tirapazamine],fluorescently interfering
18,CC[C@@]1(O)C(=O)OCc2c1cc1n(c2=O)Cc2cc3c(CN(C)C)c(O)ccc3nc2-1 [topotecan hydrochloride hydrate],fluorescently interfering
19,N#C/C(=C\c1ccc(O)c(O)c1)C(N)=S [tyrphostin 47],fluorescently interfering
20,N#CC(C#N)=C(N)/C(C#N)=C/c1cc(O)c(O)c(O)c1 [tyrphostin 51],fluorescently interfering
21,CC(C)(C)c1cc(/C=C(\C#N)C(N)=S)cc(C(C)(C)C)c1O [tyrphostin AG 879],fluorescently interfering

# Counter-ions that a name gives are not always drawn. Some compounds share one wording; it may come from a single statement.
